Laboratory results from the supplement of paper PMC12823440, “Inhibitors supercharge kinase turnover through native proteolytic circuits” (Nature, 2025).
Structures can show the parent of a compound that is named as a salt. The list shows a part of the results. The calls rarely recur for the same compound in another form.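 Kinases, fused to nanoluciferase, were expressed in K562 cells; luminescence was measured every 4 h from 2 to 18 h as percent of control (DMSO = 100%, positive control = 0%). A time point is decreased if signal falls significantly (2 sigma). Hits were called by the authors by a rule that is not shown; the count of time points alone does not decide it.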

Protein sequences, listed by entry. Tags and fused reporters are not part of them. Lines headed by an entry give the natural chain unless they say otherwise; changes in a name come on top.
UniProt O75460: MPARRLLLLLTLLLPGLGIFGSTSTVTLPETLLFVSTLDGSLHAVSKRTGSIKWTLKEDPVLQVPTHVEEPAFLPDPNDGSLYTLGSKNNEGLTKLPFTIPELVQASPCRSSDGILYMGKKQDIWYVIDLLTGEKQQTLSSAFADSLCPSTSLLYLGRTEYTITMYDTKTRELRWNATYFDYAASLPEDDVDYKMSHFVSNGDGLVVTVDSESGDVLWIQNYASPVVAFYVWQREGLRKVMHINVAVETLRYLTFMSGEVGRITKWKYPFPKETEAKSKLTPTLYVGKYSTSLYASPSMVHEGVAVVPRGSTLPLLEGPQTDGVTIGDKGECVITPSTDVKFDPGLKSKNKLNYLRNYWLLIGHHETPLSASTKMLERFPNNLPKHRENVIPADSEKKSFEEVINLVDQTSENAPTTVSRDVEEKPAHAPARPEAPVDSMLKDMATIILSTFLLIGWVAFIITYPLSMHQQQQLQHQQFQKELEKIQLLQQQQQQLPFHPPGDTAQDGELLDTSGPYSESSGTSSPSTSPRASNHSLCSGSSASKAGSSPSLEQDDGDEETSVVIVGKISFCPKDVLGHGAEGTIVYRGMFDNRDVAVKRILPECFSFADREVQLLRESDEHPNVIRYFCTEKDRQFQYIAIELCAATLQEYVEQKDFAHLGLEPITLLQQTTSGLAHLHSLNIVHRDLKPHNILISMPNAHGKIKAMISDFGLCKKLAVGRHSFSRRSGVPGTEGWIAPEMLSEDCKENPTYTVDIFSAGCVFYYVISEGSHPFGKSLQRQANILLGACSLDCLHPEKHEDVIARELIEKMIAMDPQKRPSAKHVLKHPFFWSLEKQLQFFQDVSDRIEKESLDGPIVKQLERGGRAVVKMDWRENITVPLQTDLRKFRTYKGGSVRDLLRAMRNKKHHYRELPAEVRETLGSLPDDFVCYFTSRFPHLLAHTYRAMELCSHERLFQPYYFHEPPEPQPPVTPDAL
UniProt P11362, whole entry, looked up: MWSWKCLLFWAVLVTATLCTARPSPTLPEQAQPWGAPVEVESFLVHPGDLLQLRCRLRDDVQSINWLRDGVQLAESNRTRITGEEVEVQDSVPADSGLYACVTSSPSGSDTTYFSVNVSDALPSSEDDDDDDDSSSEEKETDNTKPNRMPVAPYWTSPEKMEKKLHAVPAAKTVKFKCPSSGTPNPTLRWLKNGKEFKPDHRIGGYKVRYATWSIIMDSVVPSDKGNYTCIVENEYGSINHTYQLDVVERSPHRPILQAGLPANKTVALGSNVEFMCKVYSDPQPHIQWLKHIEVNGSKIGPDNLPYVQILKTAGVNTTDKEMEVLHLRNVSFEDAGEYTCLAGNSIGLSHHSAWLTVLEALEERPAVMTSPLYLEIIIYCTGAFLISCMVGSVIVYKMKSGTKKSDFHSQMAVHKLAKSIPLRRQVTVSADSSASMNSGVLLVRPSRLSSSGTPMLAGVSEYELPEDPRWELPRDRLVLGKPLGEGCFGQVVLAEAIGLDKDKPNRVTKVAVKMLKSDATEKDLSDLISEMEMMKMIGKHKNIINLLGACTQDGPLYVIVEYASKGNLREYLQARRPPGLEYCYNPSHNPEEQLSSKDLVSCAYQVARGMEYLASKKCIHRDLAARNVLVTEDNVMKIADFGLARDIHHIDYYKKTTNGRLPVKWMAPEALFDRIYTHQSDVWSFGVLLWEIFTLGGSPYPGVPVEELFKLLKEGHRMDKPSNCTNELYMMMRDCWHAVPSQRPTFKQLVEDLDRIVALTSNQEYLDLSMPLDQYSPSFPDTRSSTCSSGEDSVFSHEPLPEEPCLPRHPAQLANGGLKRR
UniProt P21802, whole entry, looked up: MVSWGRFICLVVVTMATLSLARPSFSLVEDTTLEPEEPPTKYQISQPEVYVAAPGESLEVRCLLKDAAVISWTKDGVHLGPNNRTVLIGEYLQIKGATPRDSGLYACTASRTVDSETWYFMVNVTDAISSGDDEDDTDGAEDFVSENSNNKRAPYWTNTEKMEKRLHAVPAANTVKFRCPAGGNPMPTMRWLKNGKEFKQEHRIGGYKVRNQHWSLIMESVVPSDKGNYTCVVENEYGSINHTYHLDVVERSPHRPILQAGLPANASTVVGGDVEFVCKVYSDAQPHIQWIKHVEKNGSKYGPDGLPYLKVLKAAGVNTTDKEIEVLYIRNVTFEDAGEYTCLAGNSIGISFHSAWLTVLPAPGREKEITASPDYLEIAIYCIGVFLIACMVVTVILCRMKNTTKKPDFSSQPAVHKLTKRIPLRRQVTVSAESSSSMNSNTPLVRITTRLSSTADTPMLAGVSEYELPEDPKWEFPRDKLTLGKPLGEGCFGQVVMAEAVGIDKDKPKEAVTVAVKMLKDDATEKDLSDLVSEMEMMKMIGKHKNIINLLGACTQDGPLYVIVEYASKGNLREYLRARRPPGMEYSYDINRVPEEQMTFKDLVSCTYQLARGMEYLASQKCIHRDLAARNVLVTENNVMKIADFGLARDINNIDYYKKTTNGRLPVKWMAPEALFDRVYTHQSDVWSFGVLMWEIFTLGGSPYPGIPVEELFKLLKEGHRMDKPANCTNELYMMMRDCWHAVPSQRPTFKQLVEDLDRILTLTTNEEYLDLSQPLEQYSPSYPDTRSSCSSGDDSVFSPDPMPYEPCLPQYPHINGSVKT
UniProt P22607, whole entry, looked up: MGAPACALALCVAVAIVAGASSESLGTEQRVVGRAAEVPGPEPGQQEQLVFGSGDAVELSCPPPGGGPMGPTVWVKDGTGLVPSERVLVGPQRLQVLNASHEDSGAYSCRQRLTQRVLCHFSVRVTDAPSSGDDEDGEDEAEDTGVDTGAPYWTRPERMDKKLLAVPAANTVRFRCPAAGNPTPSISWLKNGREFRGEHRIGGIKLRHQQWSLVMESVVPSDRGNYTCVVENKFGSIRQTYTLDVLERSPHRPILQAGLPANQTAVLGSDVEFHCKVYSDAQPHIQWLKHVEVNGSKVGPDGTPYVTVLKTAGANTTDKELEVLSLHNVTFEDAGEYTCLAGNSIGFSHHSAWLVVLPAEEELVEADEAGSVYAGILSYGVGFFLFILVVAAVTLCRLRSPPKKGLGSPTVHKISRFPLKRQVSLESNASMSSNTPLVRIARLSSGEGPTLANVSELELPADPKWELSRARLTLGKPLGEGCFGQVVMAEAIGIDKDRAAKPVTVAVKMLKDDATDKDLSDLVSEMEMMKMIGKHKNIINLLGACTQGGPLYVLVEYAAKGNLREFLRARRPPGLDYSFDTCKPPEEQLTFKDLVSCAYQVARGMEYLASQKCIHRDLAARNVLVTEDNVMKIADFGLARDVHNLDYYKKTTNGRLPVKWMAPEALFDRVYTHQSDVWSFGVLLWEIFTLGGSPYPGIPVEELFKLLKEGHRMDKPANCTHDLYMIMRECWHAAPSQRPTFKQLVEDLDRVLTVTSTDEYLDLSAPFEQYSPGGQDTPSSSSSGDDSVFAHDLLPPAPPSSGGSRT
UniProt P36888, whole entry: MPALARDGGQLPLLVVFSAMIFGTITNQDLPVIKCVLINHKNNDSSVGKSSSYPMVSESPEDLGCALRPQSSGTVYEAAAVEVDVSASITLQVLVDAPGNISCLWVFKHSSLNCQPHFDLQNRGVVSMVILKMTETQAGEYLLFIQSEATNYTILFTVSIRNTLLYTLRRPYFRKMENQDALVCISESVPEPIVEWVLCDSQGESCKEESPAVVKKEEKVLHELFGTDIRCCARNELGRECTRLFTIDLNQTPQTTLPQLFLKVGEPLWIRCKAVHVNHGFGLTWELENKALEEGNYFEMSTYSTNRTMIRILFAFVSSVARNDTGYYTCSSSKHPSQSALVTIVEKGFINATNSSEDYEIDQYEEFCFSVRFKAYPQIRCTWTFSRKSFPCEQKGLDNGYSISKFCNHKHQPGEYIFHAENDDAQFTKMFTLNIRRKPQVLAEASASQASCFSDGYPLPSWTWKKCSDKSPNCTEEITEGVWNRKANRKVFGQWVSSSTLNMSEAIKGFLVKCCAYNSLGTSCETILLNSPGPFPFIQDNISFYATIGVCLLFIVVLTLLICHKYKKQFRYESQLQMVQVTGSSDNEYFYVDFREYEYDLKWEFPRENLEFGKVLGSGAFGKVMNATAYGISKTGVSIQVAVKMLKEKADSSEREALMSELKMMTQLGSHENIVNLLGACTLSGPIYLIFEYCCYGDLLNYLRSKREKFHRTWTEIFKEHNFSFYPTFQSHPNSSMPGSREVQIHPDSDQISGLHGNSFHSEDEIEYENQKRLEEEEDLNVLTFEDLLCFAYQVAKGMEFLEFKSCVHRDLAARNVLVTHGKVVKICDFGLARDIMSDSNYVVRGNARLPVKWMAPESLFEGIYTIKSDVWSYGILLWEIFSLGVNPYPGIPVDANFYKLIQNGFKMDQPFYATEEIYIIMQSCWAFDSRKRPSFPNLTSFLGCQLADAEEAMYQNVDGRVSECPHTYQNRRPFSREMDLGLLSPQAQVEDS
UniProt P06241, whole entry, looked up: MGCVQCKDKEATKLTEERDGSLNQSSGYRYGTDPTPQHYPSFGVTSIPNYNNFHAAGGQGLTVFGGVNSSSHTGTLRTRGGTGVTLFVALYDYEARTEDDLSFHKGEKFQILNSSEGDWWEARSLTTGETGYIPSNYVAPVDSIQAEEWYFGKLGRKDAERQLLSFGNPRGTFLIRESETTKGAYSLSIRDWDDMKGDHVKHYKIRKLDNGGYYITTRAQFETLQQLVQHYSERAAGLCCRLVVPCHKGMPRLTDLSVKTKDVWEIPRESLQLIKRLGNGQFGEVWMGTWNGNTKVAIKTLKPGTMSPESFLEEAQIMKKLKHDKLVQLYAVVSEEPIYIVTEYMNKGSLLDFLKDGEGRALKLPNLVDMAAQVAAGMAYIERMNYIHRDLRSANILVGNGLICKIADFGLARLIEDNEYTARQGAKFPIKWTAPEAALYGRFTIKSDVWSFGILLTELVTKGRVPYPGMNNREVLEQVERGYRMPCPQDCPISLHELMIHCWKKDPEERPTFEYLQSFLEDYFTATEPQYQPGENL
UniProt P14616: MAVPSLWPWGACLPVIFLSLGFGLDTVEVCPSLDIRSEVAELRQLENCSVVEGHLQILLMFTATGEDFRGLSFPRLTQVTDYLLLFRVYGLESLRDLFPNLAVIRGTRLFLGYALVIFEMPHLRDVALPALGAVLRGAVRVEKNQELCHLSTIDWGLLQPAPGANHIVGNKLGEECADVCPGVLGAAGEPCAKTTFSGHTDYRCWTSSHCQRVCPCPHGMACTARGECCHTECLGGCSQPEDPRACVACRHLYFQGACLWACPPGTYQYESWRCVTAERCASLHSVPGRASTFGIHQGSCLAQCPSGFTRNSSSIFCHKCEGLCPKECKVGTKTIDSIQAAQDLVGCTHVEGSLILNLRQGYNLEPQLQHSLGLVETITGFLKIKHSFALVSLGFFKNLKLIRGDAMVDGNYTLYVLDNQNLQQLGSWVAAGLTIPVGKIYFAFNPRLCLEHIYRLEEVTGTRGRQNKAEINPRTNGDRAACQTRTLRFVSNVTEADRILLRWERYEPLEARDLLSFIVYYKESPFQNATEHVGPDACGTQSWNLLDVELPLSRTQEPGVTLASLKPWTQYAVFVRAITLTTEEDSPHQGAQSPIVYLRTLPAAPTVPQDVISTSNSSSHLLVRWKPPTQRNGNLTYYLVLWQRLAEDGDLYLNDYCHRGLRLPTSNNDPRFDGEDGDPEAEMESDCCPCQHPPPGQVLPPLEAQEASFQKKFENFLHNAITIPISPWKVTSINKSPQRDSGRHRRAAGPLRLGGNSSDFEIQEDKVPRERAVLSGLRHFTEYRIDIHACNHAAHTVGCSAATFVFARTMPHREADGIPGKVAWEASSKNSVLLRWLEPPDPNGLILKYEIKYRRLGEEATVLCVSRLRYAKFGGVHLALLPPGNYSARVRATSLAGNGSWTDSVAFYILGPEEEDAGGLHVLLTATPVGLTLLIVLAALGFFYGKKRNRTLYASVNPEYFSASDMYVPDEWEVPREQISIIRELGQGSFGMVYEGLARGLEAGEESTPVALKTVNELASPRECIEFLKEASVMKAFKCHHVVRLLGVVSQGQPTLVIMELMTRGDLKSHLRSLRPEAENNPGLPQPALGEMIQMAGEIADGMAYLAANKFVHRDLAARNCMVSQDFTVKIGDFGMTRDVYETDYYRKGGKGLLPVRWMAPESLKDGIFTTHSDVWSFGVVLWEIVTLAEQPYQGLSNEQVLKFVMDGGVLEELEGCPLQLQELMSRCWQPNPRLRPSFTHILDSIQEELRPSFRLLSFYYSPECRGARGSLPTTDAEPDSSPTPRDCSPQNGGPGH

Tests used:
Assay in all cases: kinase-Nluc reporter destabilization hit call (1 = scored as downregulated) (binary); higher = compound decreases kinase abundance
Conditions in all cases: K562; 2-18 h
ERN1 = ERN1 (UniProt O75460)
FGFR1 = FGFR1 (UniProt P11362)
FGFR2 = FGFR2 (UniProt P21802)
FGFR3 = FGFR3 (UniProt P22607)
FGR = FGR (UniProt P09769)
FLT3 = FLT3 (UniProt P36888)
FYN = FYN (UniProt P06241)
GSK3A = GSK3A (UniProt P49840)
HER2 = HER2 (UniProt P04626)
INSRR = INSRR (UniProt P14616)

Measured: kinase-Nluc reporter destabilization hit call

COc1cc2ncc(-c3ccccc3)nc2cc1OC [Tyrphostin AG1296] (10 µM)
inactive: ERN1 = 0 | FGFR1 = 0 | FGFR2 = 0 | FGFR3 = 0 | FGR 0 | FLT3 = 0 | FYN 0 | GSK3A 0 | HER2 = 0 | INSRR 0

Cn1cnc2c(F)c(Nc3ccc(Br)cc3Cl)c(C(=O)NOCCO)cc21 [Selumetinib] (10 µM)
inactive: ERN1 = 0 | FGFR1 = 0 | FGFR2 = 0 | FGFR3 = 0 | FGR 0 | FLT3 = 0 | FYN 0 | GSK3A 0 | HER2 = 0 | INSRR 0

c1cc(-c2c[nH]c3nccc(N4CCC[C@@]5(CCCCN5)C4)c23)ncn1 (10 µM)
inactive: ERN1 = 0 | FGFR1 = 0 | FGFR2 = 0 | FGFR3 = 0 | FGR 0 | FLT3 = 0 | FYN 0 | GSK3A 0 | HER2 = 0 | INSRR 0

S=C(SSC(=S)N1CCOCC1)N1CCOCC1 (10 µM)
inactive: ERN1 = 0 | FGFR1 = 0 | FGFR2 = 0 | FGFR3 = 0 | FGR 0 | FLT3 = 0 | FYN 0 | GSK3A 0 | HER2 = 0 | INSRR 0

Oc1cc(O)c2cc(O)c(-c3cc(O)c(O)c(O)c3)[o+]c2c1 [Delphinidin (chloride)] (10 µM)
inactive: ERN1 = 0 | FGFR1 = 0 | FGFR2 = 0 | FGFR3 = 0 | FGR 0 | FLT3 = 0 | FYN 0 | GSK3A 0 | HER2 = 0 | INSRR 0

NS(=O)(=O)c1ccc(-n2nc(C(F)(F)F)cc2-c2ccc(Cl)cc2)cc1 (10 µM)
inactive: ERN1 = 0 | FGFR1 = 0 | FGFR2 = 0 | FGFR3 = 0 | FGR 0 | FLT3 = 0 | FYN 0 | GSK3A 0 | HER2 = 0 | INSRR 0

CN(C)CCSSCCNC(=O)C1CCN(C(=O)CSc2ccc(Cl)cc2)CC1 (10 µM)
inactive: ERN1 = 0 | FGFR1 = 0 | FGFR2 = 0 | FGFR3 = 0 | FGR 0 | FLT3 = 0 | FYN 0 | GSK3A 0 | HER2 = 0 | INSRR 0

CCS(=O)(=O)c1ncc(Cl)c(C(=O)N(Cc2ccc(Cl)cc2)Cc2ccco2)n1 (2.5 µM)
active: FYN 1
inactive: ERN1 = 0 | FGFR1 = 0 | FGFR2 = 0 | FGFR3 = 0 | FGR 0 | FLT3 = 0 | GSK3A 0 | HER2 = 0 | INSRR 0

Cc1ccc2nc(NCCN)c3ncc(C)n3c2c1 (2.5 µM)
inactive: ERN1 = 0 | FGFR1 = 0 | FGFR2 = 0 | FGFR3 = 0 | FGR 0 | FLT3 = 0 | FYN 0 | GSK3A 0 | HER2 = 0 | INSRR 0

Cc1nc(-c2cn3c(n2)-c2ccc(-c4cnn(C(C)(C)C(N)=O)c4)cc2OCC3)n(C(C)C)n1 [Taselisib] (10 µM)
inactive: ERN1 = 0 | FGFR1 = 0 | FGFR2 = 0 | FGFR3 = 0 | FGR 0 | FLT3 = 0 | FYN 0 | GSK3A 0 | HER2 = 0 | INSRR 0

CC(C)(O)CNc1ncc(-c2ccnc(Nc3ccnc(Cl)c3)n2)c(CC2CC2)n1 (2.5 µM)
inactive: ERN1 = 0 | FGFR1 = 0 | FGFR2 = 0 | FGFR3 = 0 | FGR 0 | FLT3 = 0 | FYN 0 | GSK3A 0 | HER2 = 0 | INSRR 0

O=C(O)CCC(=O)Nc1ccc(Br)cn1 [Bikinin] (10 µM)
inactive: ERN1 = 0 | FGFR1 = 0 | FGFR2 = 0 | FGFR3 = 0 | FGR 0 | FLT3 = 0 | FYN 0 | GSK3A 0 | HER2 = 0 | INSRR 0

Cc1cc(=O)oc2c(C=O)c(O)ccc12 (10 µM)
inactive: ERN1 = 0 | FGFR1 = 0 | FGFR2 = 0 | FGFR3 = 0 | FGR 0 | FLT3 = 0 | FYN 0 | GSK3A 0 | HER2 = 0 | INSRR 0

CC#CC(=O)N1CC[C@@H](n2c(=O)n(-c3ccc(Oc4ccccc4)cc3)c3c(N)ncnc32)C1 [Tirabrutinib (hydrochloride)] (10 µM)
inactive: ERN1 = 0 | FGFR1 = 0 | FGFR2 = 0 | FGFR3 = 0 | FGR 0 | FLT3 = 0 | FYN 0 | GSK3A 0 | HER2 = 0 | INSRR 0

Cc1[nH]c(/C=C2\C(=O)Nc3ccccc32)c(C)c1CCC(=O)O [Orantinib] (10 µM)
inactive: ERN1 = 0 | FGFR1 = 0 | FGFR2 = 0 | FGFR3 = 0 | FGR 0 | FLT3 = 0 | FYN 0 | GSK3A 0 | HER2 = 0 | INSRR 0

Cn1cc(-c2cnn3c(N)c(Br)c([C@@H]4CCCNC4)nc23)cn1 (2.5 µM)
inactive: ERN1 = 0 | FGFR1 = 0 | FGFR2 = 0 | FGFR3 = 0 | FGR 0 | FLT3 = 0 | FYN 0 | GSK3A 0 | HER2 = 0 | INSRR 0

Cc1cccc(-c2[nH]ncc2-c2ccc(F)c(-c3cnn(CCO)c3)c2)n1 (10 µM)
inactive: ERN1 = 0 | FGFR1 = 0 | FGFR2 = 0 | FGFR3 = 0 | FGR 0 | FLT3 = 0 | FYN 0 | GSK3A 0 | HER2 = 0 | INSRR 0

Cc1cc(Nc2ncnc3ccc(NC4=NC(C)(C)CO4)cc23)ccc1Oc1ccn2ncnc2c1 [Tucatinib (hemiethanolate)] (2.5 µM)
inactive: ERN1 = 0 | FGFR1 = 0 | FGFR2 = 0 | FGFR3 = 0 | FGR 0 | FLT3 = 0 | FYN 0 | GSK3A 0 | HER2 = 0 | INSRR 0

C[C@@H](c1ccc(F)cc1)n1nnc2cnc3ccc(-c4ccc5ocnc5c4)cc3c21 (10 µM)
inactive: ERN1 = 0 | FGFR1 = 0 | FGFR2 = 0 | FGFR3 = 0 | FGR 0 | FLT3 = 0 | FYN 0 | GSK3A 0 | HER2 = 0 | INSRR 0

CNC(=O)c1c(F)cccc1Nc1nc(Nc2cc3c(cc2OC)CCN3C(=O)CN(C)C)nc2[nH]ccc12 (10 µM)
inactive: ERN1 = 0 | FGFR1 = 0 | FGFR2 = 0 | FGFR3 = 0 | FGR 0 | FLT3 = 0 | FYN 0 | GSK3A 0 | HER2 = 0 | INSRR 0

COc1cc2nccc(Oc3ccc(NC(=O)NC4CC4)c(Cl)c3)c2cc1C(N)=O [Lenvatinib (mesylate)] (10 µM)
inactive: ERN1 = 0 | FGFR1 = 0 | FGFR2 = 0 | FGFR3 = 0 | FGR 0 | FLT3 = 0 | FYN 0 | GSK3A 0 | HER2 = 0 | INSRR 0

C[C@@H]1COCCN1c1cc(C2([S@@](C)(=N)=O)CC2)nc(-c2ccnc3[nH]ccc23)n1 [(S)-Ceralasertib] (10 µM)
inactive: ERN1 = 0 | FGFR1 = 0 | FGFR2 = 0 | FGFR3 = 0 | FGR 0 | FLT3 = 0 | FYN 0 | GSK3A 0 | HER2 = 0 | INSRR 0

O=C(Nc1cn[nH]c1-c1ccccn1)c1nn(C2CCNCC2)cc1Cl (10 µM)
inactive: ERN1 = 0 | FGFR1 = 0 | FGFR2 = 0 | FGFR3 = 0 | FGR 0 | FLT3 = 0 | FYN 0 | GSK3A 0 | HER2 = 0 | INSRR 0

O=C(CSC1=NCCN1)NC1CCCCCC1 [ICCB-19 (hydrochloride)] (2.5 µM)
inactive: ERN1 = 0 | FGFR1 = 0 | FGFR2 = 0 | FGFR3 = 0 | FGR 0 | FLT3 = 0 | FYN 0 | GSK3A 0 | HER2 = 0 | INSRR 0

COc1cc(OC2CCN(C)CC2)ccc1Nc1ncc2c(n1)n(C1CCCC1)c(=O)n2C (10 µM)
inactive: ERN1 = 0 | FGFR1 = 0 | FGFR2 = 0 | FGFR3 = 0 | FGR 0 | FLT3 = 0 | FYN 0 | GSK3A 0 | HER2 = 0 | INSRR 0

COc1cc2c(cc1OC)CN(S(=O)(=O)c1ccc(OC)c(N3CCN(C(=O)c4ccc(F)cc4C(F)(F)F)CC3)c1)CC2 (10 µM)
inactive: ERN1 = 0 | FGFR1 = 0 | FGFR2 = 0 | FGFR3 = 0 | FGR 0 | FLT3 = 0 | FYN 0 | GSK3A 0 | HER2 = 0 | INSRR 0

Oc1ccc(Nc2nc(-c3ccc(Cl)cc3)cs2)cc1 (10 µM)
inactive: ERN1 = 0 | FGFR1 = 0 | FGFR2 = 0 | FGFR3 = 0 | FGR 0 | FLT3 = 0 | FYN 0 | GSK3A 0 | HER2 = 0 | INSRR 0

NC(=O)c1nc(Nc2ccccc2)sc1NC(=O)C1CCCCC1 (10 µM)
inactive: ERN1 = 0 | FGFR1 = 0 | FGFR2 = 0 | FGFR3 = 0 | FGR 0 | FLT3 = 0 | FYN 0 | GSK3A 0 | HER2 = 0 | INSRR 0

CS(=O)(=O)Nc1cc(-c2ccc3ncnc(Nc4ccc(F)c(Cl)c4)c3c2)cnc1Cl (2.5 µM)
inactive: ERN1 = 0 | FGFR1 = 0 | FGFR2 = 0 | FGFR3 = 0 | FGR 0 | FLT3 = 0 | FYN 0 | GSK3A 0 | HER2 = 0 | INSRR 0

CN(C)C(=O)Cn1cc(-c2ccc(-c3cncc4ccccc34)cc2)cn1 (10 µM)
inactive: ERN1 = 0 | FGFR1 = 0 | FGFR2 = 0 | FGFR3 = 0 | FGR 0 | FLT3 = 0 | FYN 0 | GSK3A 0 | HER2 = 0 | INSRR 0
